In article PMC6199744, “Development of Chemical Proteomics for the Folateome and Analysis of the Kinetoplastid Folateome” (ACS Infectious Diseases, 2018):
This continues a long series; more values of the same kind are listed elsewhere.

Test system: L. major lysate proteins
Test: Multitargeted bead mixture chemoproteomics, single concentration competition, proteome-wide
Assay type: binding
Details: vs vehicle control

In the case of `Nc1nc2c(c(=O)[nH]1)N(C=O)C(CNc1ccc(C(=O)N[C@@H](CCC(=O)O)C(=O)O)cc1)CN2` (stereo partly drawn) [LEU, leucovorin], the fold change (protein LMJF.15.0240 NONSPECIFIC LIPID-TRANSFER PROTEIN, PUTATIVE,STEROL CARRIER PROTEIN, PUTATIVE) is reported as 0.87, the fold change (protein LMJF.15.0950 40S RIBOSOMAL PROTEIN S3, PUTATIVE) is reported as 0.97 and the fold change (protein LMJF.16.0440 FUCOSE KINASE, PUTATIVE) is reported as 0.96. It also gave a fold change (protein LMJF.16.0550 OROTIDINE-5-PHOSPHATE DECARBOXYLASE/OROTATE PHOSPHORIBOSYLTRANSFERASE, PUTATIVE) of 0.88, a fold change (protein LMJF.18.0700 HYPOTHETICAL PROTEIN, CONSERVED) of 0.8 and a fold change (protein LMJF.18.1280 HYPOTHETICAL PROTEIN, CONSERVED) of 0.9. It also gave a fold change (protein LMJF.19.0060 40S RIBOSOMAL PROTEIN S2) of 1.11, a fold change (protein LMJF.19.0490 HYPOTHETICAL PROTEIN, CONSERVED) of 0.87 and a fold change (protein LMJF.19.0710 GLYCOSOMAL MALATE DEHYDROGENASE) of 0.96. For the same molecule, the fold change (protein LMJF.21.0250 HEXOKINASE, PUTATIVE) was 0.88, the fold change (protein LMJF.21.0760 […]-ATP-ASE SUBUNIT 5, PUTATIVE,19S […]) was 0.7 and the fold change (protein LMJF.21.0800 HY[…], CONSERVED) was 0.49. For the same molecule, the fold change (protein LMJF.21.1250 ADENYLATE KINASE, PUTATIVE) was 0.9, the fold change (protein LMJF.21.1770 ATP SYNTHASE F1 SUBUNIT GAMMA PROTEIN, PUTATIVE) was 0.92 and the fold change (protein LMJF.21.1860 BETA TUBULIN) was 0.93. For the same molecule, the fold change (protein LMJF.22.0300 HYPOTHETICAL PROTEIN, CONSERVED) was 0.68, the fold change (protein LMJF.22.0410 HY[…], CONSERVED) was 0.8 and the fold change (protein LMJF.22.0620 […] SUBUNIT 5, PUTATIVE) was 0.78. The fold change (protein LMJF.22.0990 HYPOTHETICAL PROTEIN, CONSERVED) was 1, the fold change (protein LMJF.22.1290 RIBONUCLEOSIDE-DIPHOSPHATE REDUCTASE SMALL CHAIN, PUTATIVE) was 0.79 and the fold change (protein LMJF.22.1500 ATP-DEPENDENT DEAD/H RNA HELICASE, PUTATIVE) was 1.16. For the same molecule, the fold change (protein LMJF.23.0380 ATP-BINDING CASSETTE PROTEIN SUBFAMILY G, MEMBER 5, PUTATIVE) was 0.96, the fold change (protein LMJF.23.0830 NA/H ANTIPORTER-LIKE PROTEIN) was 0.74 and the fold change (protein LMJF.23.1350 ACETYLTRANSFERASE-LIKE PROTEIN) was 0.86. The fold change (protein LMJF.25.1210 HY[…], CONSERVED) was 1.01, the fold change (protein LMJF.26.0280 HYPOTHETICAL PROTEIN, CONSERVED) was 0.94 and the fold change (protein LMJF.27.0420 RIBOKINASE, PUTATIVE) was 0.89. The fold change (protein LMJF.27.1810 GLYCOSOMAL PHOSPHOENOLPYRUVATE CARBOXYKINASE, PUTATIVE) was 1.04, the fold change (protein LMJF.27.2630 ATP-DEPENDENT CLP PROTEASE SUBUNIT, HEAT SHOCK PROTEIN 78 (HSP78), PUTATIVE) was 0.6 and the fold change (protein LMJF.28.2250 GLYCOSOMAL MEMBRANE PROTEIN-LIKE PROTEIN) was 0.99. The fold change (protein LMJF.29.0060 TRYPTOPHANYL-TRNA SYNTHETASE, PUTATIVE) was 0.94, the fold change (protein LMJF.29.1550 HYPOTHETICAL PROTEIN, CONSERVED) was 0.47 and the fold change (protein LMJF.29.1720 HISTONE H2A, PUTATIVE) was 0.92. For the same molecule, the fold change (protein LMJF.29.1830 DIHYDROLIPOAMIDE DEHYDROGENASE, PUTATIVE) was 0.85, the fold change (protein LMJF.29.2440 HYPOTHETICAL PROTEIN, CONSERVED) was 0.75 and the fold change (protein LMJF.30.1010 UBIQUITIN FUSION DEGRADATION PROTEIN 2, PUTATIVE,UBIQUITIN CONJUGATION FACTOR E4 B, PUTATIVE) was 0.88. It also gave a fold change (protein LMJF.30.1940 SUCCINYL-COA:3-KETOACID-COENZYME A TRANSFERASE- LIKE PROTEIN) of 0.93, a fold change (protein LMJF.30.3110 S-ADENOSYLMETHIONINE DECARBOXYLASE) of 0.85 and a fold change (protein LMJF.30.3190 3-HYDROXY-3-METHYLGLUTARYL-COA REDUCTASE) of 0.78. It also gave a fold change (protein LMJF.30.3390 CAS/CSE/IMPORTIN DOMAIN PROTEIN, PUTATIVE) of 0.83, a fold change (protein LMJF.31.1800 AMINO ACID PERMEASE) of 0.79 and a fold change (protein LMJF.31.2640 2-OXOGLUTARATE DEHYDROGENASE, E3 COMPONENT, […]-LIKE PROTEIN) of 0.81. It also gave a fold change (protein LMJF.31.2650 ACETOIN DEHYDROGENASE E3 COMPONENT-LIKE PROTEIN) of 0.82, a fold change (protein LMJF.31.2970 ACETYL-COA CARBOXYLASE, PUTATIVE) of 0.78 and a fold change (protein LMJF.31.3130 […]-COA CARBOXYLASE BIOTINYLATED […]-LIKE PROTEIN) of 0.94. For the same molecule, the fold change (protein LMJF.32.0390 PROTEASOME REGULATORY NON-ATP-ASE SUBUNIT 8, PUTATIVE,26S PROTEASOME REGULATORY SUBUNIT, PUTATIVE) was 0.83, the fold change (protein LMJF.32.3640 HYPOTHETICAL PROTEIN, CONSERVED) was 0.84 and the fold change (protein LMJF.33.0830 2,4-DIENOYL-COA REDUCTASE FADH1, PUTATIVE) was 0.92. For the same molecule, the fold change (protein LMJF.33.1030 HYPOTHETICAL PROTEIN, CONSERVED) was 0.75, the fold change (protein LMJF.33.1610 PEPTIDASE M20/M25/M40, PUTATIVE) was 0.82 and the fold change (protein LMJF.34.0010 HYPOTHETICAL PROTEIN, CONSERVED) was 0.92. For the same molecule, the fold change (protein LMJF.34.3740 SERINE PALMITOYLTRANSFERASE-LIKE PROTEIN) was 1.01, the fold change (protein LMJF.35.1880 60S RIBOSOMAL PROTEIN L5, PUTATIVE) was 1.04 and the fold change (protein LMJF.35.2150 HYPOTHETICAL PROTEIN, CONSERVED) was 0.94. For the same molecule, the fold change (protein LMJF.35.2330 HYPOTHETICAL PROTEIN, CONSERVED) was 0.73, the fold change (protein LMJF.35.4550 HYPOTHETICAL PROTEIN, CONSERVED) was 0.81 and the fold change (protein LMJF.35.4760 HYPOTHETICAL PROTEIN, CONSERVED) was 0.8. For the same molecule, the fold change (protein LMJF.35.4860 HYPOTHETICAL PROTEIN, CONSERVED) was 0.72, the fold change (protein LMJF.35.5040 polyadenylate-binding protein 1) was 0.86 and the fold change (protein LMJF.36.0250 EIF3-INTERACTING PROTEIN-LIKE PROTEIN) was 0.83. For the same molecule, the fold change (protein LMJF.36.0320 PROTEASOME BETA 2 SUBUNIT, PUTATIVE) was 0.89, the fold change (protein LMJF.36.1670 HYPOTHETICAL PROTEIN, CONSERVED) was 0.8 and the fold change (protein LMJF.36.2160 HY[…], CONSERVED) was 1.13. It also gave a fold change (protein LMJF.36.3760 60S RIBOSOMAL PROTEIN L10A, PUTATIVE) of 1.14, a fold change (protein LMJF.36.4450 MITOCHONDRIAL INTERMEDIATE PEPTIDASE, PUTATIVE,METALLO-PEPTIDASE, CLAN MA(E), FAMILY M3) of 0.92 and a fold change (protein LMJF.36.5100 HY[…], CONSERVED) of 1.02.
